{"source": "paper PMC11404569", "assay_in_all_cases": "EMSA", "key": {"[1]": {"molecular_target": "T1, ECT2-108 (Arabidopsis thaliana) (UniProt Q9LJE5)", "T1 sequence (looked up)": "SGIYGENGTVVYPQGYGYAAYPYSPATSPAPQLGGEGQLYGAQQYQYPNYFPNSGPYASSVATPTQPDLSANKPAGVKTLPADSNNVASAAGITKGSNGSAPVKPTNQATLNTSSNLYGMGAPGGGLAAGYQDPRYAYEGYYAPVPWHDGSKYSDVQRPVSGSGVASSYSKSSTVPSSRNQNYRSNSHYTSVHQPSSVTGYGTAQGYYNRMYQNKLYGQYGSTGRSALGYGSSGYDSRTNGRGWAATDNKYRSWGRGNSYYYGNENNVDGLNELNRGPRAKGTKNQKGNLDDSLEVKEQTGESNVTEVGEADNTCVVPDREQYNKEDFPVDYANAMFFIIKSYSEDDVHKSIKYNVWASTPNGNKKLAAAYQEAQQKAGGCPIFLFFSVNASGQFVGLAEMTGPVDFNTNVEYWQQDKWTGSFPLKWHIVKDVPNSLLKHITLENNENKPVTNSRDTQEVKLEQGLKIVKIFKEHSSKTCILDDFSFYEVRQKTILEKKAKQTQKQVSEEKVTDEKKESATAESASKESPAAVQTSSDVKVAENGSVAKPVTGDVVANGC", "settings": "EMSA: 10 nM FAM-RNA, binding buffer 10 mM HEPES pH 8.0, 50 mM KCl, 1 mM EDTA, 0.05% Triton X-100, 5% glycerol, 10 µg/mL salmon DNA, 1 mM DTT, 40 U/mL RNasin, recombinant protein, residues 108-667, protein details: N-terminal His-SUMO, label: 5' FAM"}, "[2]": {"molecular_target": "T2, ECT2-204 (Arabidopsis thaliana) (UniProt Q9LJE5)", "T2 sequence (looked up)": "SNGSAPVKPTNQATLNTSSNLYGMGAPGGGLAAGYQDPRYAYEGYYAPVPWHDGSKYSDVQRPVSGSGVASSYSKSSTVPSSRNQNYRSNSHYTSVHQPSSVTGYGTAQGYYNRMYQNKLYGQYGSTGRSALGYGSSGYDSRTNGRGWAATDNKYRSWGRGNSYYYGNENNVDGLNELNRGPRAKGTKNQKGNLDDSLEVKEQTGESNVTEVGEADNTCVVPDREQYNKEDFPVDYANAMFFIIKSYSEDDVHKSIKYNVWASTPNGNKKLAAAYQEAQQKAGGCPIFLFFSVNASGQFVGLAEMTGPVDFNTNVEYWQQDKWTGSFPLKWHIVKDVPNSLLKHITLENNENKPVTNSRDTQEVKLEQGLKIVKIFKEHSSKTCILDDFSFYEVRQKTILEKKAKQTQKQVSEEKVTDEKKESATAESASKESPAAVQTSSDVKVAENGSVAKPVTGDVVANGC", "settings": "EMSA: 10 nM FAM-RNA, binding buffer 10 mM HEPES pH 8.0, 50 mM KCl, 1 mM EDTA, 0.05% Triton X-100, 5% glycerol, 10 µg/mL salmon DNA, 1 mM DTT, 40 U/mL RNasin, recombinant protein, residues 204-667, protein details: N-terminal His-SUMO, label: 5' FAM"}, "[3]": {"molecular_target": "T3, ECT2-303 (Arabidopsis thaliana) (UniProt Q9LJE5)", "T3 sequence (looked up)": "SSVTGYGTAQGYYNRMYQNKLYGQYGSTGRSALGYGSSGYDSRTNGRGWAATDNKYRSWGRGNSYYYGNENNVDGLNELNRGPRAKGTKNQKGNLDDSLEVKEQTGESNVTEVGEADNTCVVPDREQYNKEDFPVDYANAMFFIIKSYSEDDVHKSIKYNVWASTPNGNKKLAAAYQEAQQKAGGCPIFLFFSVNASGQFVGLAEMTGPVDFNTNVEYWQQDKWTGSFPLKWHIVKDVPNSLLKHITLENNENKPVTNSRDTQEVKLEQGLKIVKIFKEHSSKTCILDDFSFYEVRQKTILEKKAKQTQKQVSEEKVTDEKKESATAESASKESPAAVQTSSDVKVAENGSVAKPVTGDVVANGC", "settings": "no gel-stable complex, free probe decreases; m6A at position 6; thiol-protected 3' bases (*C*U); EMSA: 10 nM FAM-RNA; binding buffer 10 mM HEPES pH 8.0, 50 mM KCl, 1 mM EDTA, 0.05% Triton X-100, 5% glycerol, 10 µg/mL salmon DNA, 1 mM DTT, 40 U/mL RNasin; recombinant protein; residues 303-667; protein details: N-terminal His-SUMO; label: 5' FAM"}, "[4]": {"molecular_target": "T4, ECT2-376 (Arabidopsis thaliana) (UniProt Q9LJE5)", "T4 sequence (looked up)": "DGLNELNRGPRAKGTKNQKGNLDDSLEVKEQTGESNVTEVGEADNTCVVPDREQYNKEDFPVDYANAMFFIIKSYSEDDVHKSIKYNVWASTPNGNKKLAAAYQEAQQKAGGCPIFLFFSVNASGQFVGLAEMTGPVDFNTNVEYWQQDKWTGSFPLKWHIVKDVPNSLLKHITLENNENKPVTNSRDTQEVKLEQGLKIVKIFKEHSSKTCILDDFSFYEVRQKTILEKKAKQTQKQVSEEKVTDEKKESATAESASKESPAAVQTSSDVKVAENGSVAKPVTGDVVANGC", "settings": "no gel-stable complex, free probe decreases, EMSA: 10 nM FAM-RNA, binding buffer 10 mM HEPES pH 8.0, 50 mM KCl, 1 mM EDTA, 0.05% Triton X-100, 5% glycerol, 10 µg/mL salmon DNA, 1 mM DTT, 40 U/mL RNasin, recombinant protein, residues 376-667, protein details: N-terminal His-SUMO, label: 5' FAM"}, "[5]": {"molecular_target": "T5, ECT2-424 (His-SUMO) (Arabidopsis thaliana) (UniProt Q9LJE5)", "T5 sequence (looked up)": "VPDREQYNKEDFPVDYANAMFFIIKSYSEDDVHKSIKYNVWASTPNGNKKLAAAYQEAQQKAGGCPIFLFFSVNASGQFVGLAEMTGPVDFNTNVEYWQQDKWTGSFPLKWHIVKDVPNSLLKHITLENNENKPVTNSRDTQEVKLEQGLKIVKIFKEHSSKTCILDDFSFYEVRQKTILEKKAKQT", "settings": "no gel-stable complex, EMSA: 10 nM FAM-RNA, binding buffer 10 mM HEPES pH 8.0, 50 mM KCl, 1 mM EDTA, 0.05% Triton X-100, 5% glycerol, 10 µg/mL salmon DNA, 1 mM DTT, 40 U/mL RNasin, recombinant protein, residues 424-610, protein details: N-terminal His-SUMO, label: 5' FAM"}, "[6]": {"settings": "no gel-stable complex, free probe decreases, m6A at position 6, thiol-protected 3' bases (*C*U)"}, "[7]": {"settings": "stable complex, low affinity, thiol-protected 3' bases (*G*A)"}, "[8]": {"settings": "up to 500 nM, thiol-protected 3' bases (*G*U)"}, "[9]": {"settings": "smear, m6A at position 25, thiol-protected 3' bases (*G*U)"}}, "note": "For part of these data: Negatives hold for the conditions tested. At least one verdict was read from the data and is not stated in words by the source. Where a protein sequence is shown, tags need not be part of it. A weaker result is weaker than the reference pair of the same experiment. The exact form of at least one protein or probe is not confirmed.", "data": [{"sequence": "AAAGGACUGCU [Probe II m6A]", "values": [{"measurement": "binding result", "setting": "[1]; [6]", "value": "binds more weakly"}, {"measurement": "binding result", "setting": "[2]; [6]", "value": "binds more weakly"}, {"measurement": "binding result", "setting": "[3]", "value": "binds more weakly"}, {"measurement": "binding result", "setting": "[4]; m6A at position 6, thiol-protected 3' bases (*C*U)", "value": "binds more weakly"}, {"measurement": "binding result", "setting": "[5]; free probe decreases, m6A at position 6, thiol-protected 3' bases (*C*U)", "value": "binds more weakly"}]}, {"sequence": "AAGGGCCGAACAACAGCAAAAAGGACUGCAAAAGGGGCAAGA [Probe III (A)]", "values": [{"measurement": "binding result", "setting": "[1]; [7]", "value": "binds more weakly"}, {"measurement": "binding result", "setting": "[2]; [7]", "value": "binds more weakly"}]}, {"sequence": "AUGGGCCGUUCAUCUGCUAAAAGGACUGCUUUUGGGGCUUGU [Probe I (A)]", "values": [{"measurement": "binding result", "setting": "[2]; [8]", "value": "no binding"}]}, {"sequence": "AUGGGCCGUUCAUCUGCUAAAAGGACUGCUUUUGGGGCUUGU [Probe I m6A]", "values": [{"measurement": "binding result", "setting": "[4]; [9]", "value": "binds more weakly"}, {"measurement": "binding result", "setting": "[5]; [9]", "value": "binds more weakly"}]}, {"sequence": "AUGUGUCUUUCAUGUACUAAAAGGACUGCUCUUGUGUCUUGU [Probe IV (A)]", "values": [{"measurement": "binding result", "setting": "[1]; [8]", "value": "no binding"}, {"measurement": "binding result", "setting": "[2]; [8]", "value": "no binding"}]}]}
